# Measured values taken from the supplement of paper PMC3334620.
# The full ranking holds about 33,000 sequences; the median of “E-score (-0.5 to 0.5)” is about -0.0014, and the highest 2% start at about 0.25. The list shows a part of the results.
# Target: T1, Cad1 (UniProt P24813)
# T1 sequence: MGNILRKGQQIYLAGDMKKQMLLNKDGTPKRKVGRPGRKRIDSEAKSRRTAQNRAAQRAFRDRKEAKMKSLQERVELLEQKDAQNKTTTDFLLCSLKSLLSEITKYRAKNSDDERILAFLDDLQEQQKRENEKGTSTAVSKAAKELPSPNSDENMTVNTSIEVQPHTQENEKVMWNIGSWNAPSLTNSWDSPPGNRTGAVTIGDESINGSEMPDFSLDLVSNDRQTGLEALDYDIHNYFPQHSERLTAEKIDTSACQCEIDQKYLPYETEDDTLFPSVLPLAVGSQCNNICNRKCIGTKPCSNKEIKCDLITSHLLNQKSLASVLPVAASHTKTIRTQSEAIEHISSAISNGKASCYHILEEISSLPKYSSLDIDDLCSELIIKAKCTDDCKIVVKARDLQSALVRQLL
# Test: PBM E-score (8-mer binding enrichment) (E-score (-0.5 to 0.5)); higher = stronger / more preferred TF binding
# Conditions: protein concentration: 100 nM; construct: GST-full length
# Method in brief: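 Each ungapped eight-base word and its reverse complement, pooled, received an E-score from the Universal PBM Analysis Suite. Underlying scans, normalised with masliner, recorded fluorescent anti-GST bound to GST-tagged yeast transcription factors. These were applied at about 100-200 nM to universal all-10-mer Agilent arrays double-stranded by primer extension.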
row,Sequence,PBM E-score
1,CCCCTACA,-0.26
2,AGTTTCAT,0.147
3,TACAGACA,0.0428
4,CCTTCCGA,-0.0899
5,GGTTTTAC,-0.244
6,TGACGACA,0.202
7,CCCGCGCA,0.106
8,TACATTCA,0.0391
9,CCACCGCA,-0.00127
10,AGAAGCTG,-0.0145
11,ACCTTAGA,0.0001
12,AGTAGAAC,-0.155
13,ACAGATTA,0.00085
14,AGGATGCC,-0.237
15,CTAGAAGC,-0.245
16,CCAGTAGA,-0.0191
17,ATCATAAC,0.273
18,GGATCTTA,-0.0103
19,AGCATTCG,-0.0729
20,ATTGTCCA,0.132
21,AACAATTC,0.038
22,AGGTTTAG,-0.145
23,CAAAAAGC,0.193
24,CGCGCGGC,0.261
25,ATCTTAAC,0.216

row,Sequence,PBM E-score
1,TATCCCGA,0.127
2,CAGGTCTC,-0.164
3,GAATCCCA,0.0207
4,TCGTTCAA,0.0576
5,CTATTAAA,0.00283
6,CCTGGCAC,-0.137
7,AATTAGTG,0.316
8,ATTGCTGC,0.0684
9,CAACCCTC,-0.0405
10,GGTTAACA,0.129
11,CCCGGCTA,-0.235
12,CGGAGTCA,-0.0932
13,AGTATAAC,-0.12
14,CAGGGCCG,-0.00414
15,CACTGGGA,-0.126
16,TAGTTCCA,0.122
17,AATATCTG,-0.00633
18,ATTCTTCA,0.0734
19,AATGGTGC,-0.131
20,AGGGGGGA,-0.328
21,AGCTCCGC,0.0717
22,AACAAGAC,0.0975
23,ACTAACGC,0.094
24,CGGTACAC,-0.123
25,GACTGATA,-0.121

row,Sequence,PBM E-score
1,AACGGCGA,0.153
2,GGGCATCA,-0.201
3,CTGATGTC,0.141
4,ACTGAACC,-0.16
5,TCGGAACA,0.268
6,GGGGCTGA,-0.133
7,ACTCCTAG,-0.105
8,ATGACACC,-0.0294
9,AGAGTCGC,0.0279
10,GAGCGTCC,-0.00901
11,AATGGACG,0.0996
12,CGTAGCCC,-0.125
13,GAAACCGC,0.183
14,AATGTTGG,0.166
15,ATTTAACG,0.158
16,AAGGGCCT,-0.199
17,ATCGATTA,0.275
18,GCACTACA,-0.126
19,ACGTATCT,-0.105
20,CCAATGCC,-0.153
21,CCAGCGGG,-0.121
22,ATATGTAG,-0.0656
23,AAAACACG,0.149
24,GCTGGCTA,-0.224
25,AGCTTAAC,0.0304

# An excerpt of these results, as tab-separated lines.
row	Sequence	PBM E-score
6	GGGGCTGA	-0.133
7	ACTCCTAG	-0.105

# More results follow:

row,Sequence,PBM E-score
1,AGTTTTCC,0.121
2,GCAGTAAA,-0.0247
3,ATGCAGAA,0.0628
4,CGAATACA,-0.0779
5,ATATCATG,0.0662
6,CCTTCTAA,-0.149
7,ATGTGCAG,-0.188
8,CCTAGGGC,-0.118
9,ATTATTAC,0.0832
10,CATGAATG,-0.0244
11,AATAGGGG,0.0361
12,CGCAGGAG,-0.101
13,GCCCACAC,-0.0589
14,AAGGTGTC,0.0418
15,ACGGTAGT,0.047
16,CTATGCTC,-0.0378
17,ATTAGGGA,-0.0914
18,AAACGCTG,0.0247
19,AGAAAGAT,0.0047
20,CATACTTC,-0.0958
21,CTTCCTTC,-0.183
22,TGCGGCAA,-0.0179
23,GTAACCAC,-0.22
24,ATACCTGG,-0.261
25,CGATGTGA,-0.0321

row,Sequence,PBM E-score
1,TCCAAACA,-0.135
2,GACAAGAC,-0.0209
3,CGCTTTTC,-0.00565
4,CGAAGACG,-0.177
5,AACGTTGT,0.118
6,CAGTGAGA,-0.0333
7,AATCAGCC,0.0909
8,TTCTTCAA,0.0965
9,TAAGATAA,-0.0849
10,CTGTTGTC,0.0122
11,CTCTGGCA,-0.0245
12,CTTTTACC,-0.0262
13,CGTCTTAA,0.067
14,GTTTATGA,0.142
15,ATCTTGAA,0.11
16,AGGGTACA,-0.118
17,ACAGGGTC,-0.0301
18,CGTGGGCC,-0.0973
19,AGCAAAAT,0.213
20,CTGGACGA,-0.167
21,AAAACGGC,-0.127
22,CGGAACAA,0.29
23,AATGTTAC,0.0878
24,CGGTCTTA,-0.199
25,AGTCGGTC,-0.196

row,Sequence,PBM E-score
1,CACATACC,-0.0311
2,GGTGGCGA,-0.0722
3,GAACTTAC,0.0504
4,GTCACGAA,0.0125
5,CGGACAAA,0.0973
6,AGCTTCTC,-0.137
7,CTGCCCAC,-0.149
8,GCATAAGC,0.254
9,ACTCCTAC,-0.0357
10,AGACTCGG,-0.214
11,CAACATTA,0.106
12,ATACCAAG,0.141
13,ACGTCGAC,0.104
14,ACCACTCT,-0.187
15,ACTTATCG,0.128
16,CCGGTTCC,0.0262
17,CGAGCCCG,-0.134
18,TGCGAGAA,-0.0892
19,CCTACTAA,0.00658
20,CCCTAACC,-0.157
21,TATGCTGA,0.0891
22,ACTGCAAA,0.129
23,CCGTGGAA,0.043
24,CCTGGCAG,-0.044
25,ATCAGCAT,0.192

row,Sequence,PBM E-score
1,ATGAACCA,0.216
2,CGACCTCA,-0.0306
3,CCCTACGA,-0.147
4,AAGTGGGC,0.0945
5,ACGAGGAG,0.056
6,AAAAGTTT,-0.0158
7,CATGTGTC,0.0954
8,AATATACC,0.112
9,ACCATACC,-0.084
10,CCCAGAGA,-0.169
11,CTTCGAGA,-0.0393
12,GTCAAAAA,0.019
13,AAAGTGAC,-0.0945
14,CCTAGTCA,-0.0765
15,ACGACAAG,-0.127
16,GACAGTCC,-0.144
17,TAAATATA,0.277
18,ACTGGCCT,-0.0604
19,GCTTGGCA,-0.00418
20,ACGGCTGG,-0.09
21,CGCTGATA,0.0528
22,AGGTACGG,-0.168

# Shown bar-delimited: part of the list above
row | Sequence | PBM E-score
15 | ACGACAAG | -0.127
16 | GACAGTCC | -0.144
17 | TAAATATA | 0.277
18 | ACTGGCCT | -0.0604
19 | GCTTGGCA | -0.00418
20 | ACGGCTGG | -0.09
21 | CGCTGATA | 0.0528
